# Results are given in words; binding and its absence hold for the method and conditions named. In cells and extracts the contact can be indirect. Binding can be weak; no strength is given.
# Target: T1, C‐reactive protein (rat (endogenous in DRG tissue)) (UniProt P48199)
# T1 sequence: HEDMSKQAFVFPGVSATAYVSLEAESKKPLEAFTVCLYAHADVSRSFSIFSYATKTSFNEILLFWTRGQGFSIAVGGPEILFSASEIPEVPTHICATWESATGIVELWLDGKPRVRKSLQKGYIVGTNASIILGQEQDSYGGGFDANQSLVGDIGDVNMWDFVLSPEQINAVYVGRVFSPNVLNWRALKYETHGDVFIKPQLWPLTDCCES
# Test: co-IP; rat L4‐L5 DRG tissue lysates (RIPA lysis buffer with NP‐40, protease and phosphatase inhibitors) from sham and CCI rats; immunoprecipitated over 2 h at 4 °C with protein A/G coupled with anti‐FcγRI, anti‐Syk or anti‐CRP antibody (Pierce Crosslink Magnetic IP/Co‐IP Kit); immunoblot
substance,measurement,value
Fc‐gamma‐receptor type I (rat (endogenous in DRG tissue)),binding,binds

# Reference: article PMC10074098
